# Test results: the supplement of paper PMC8728848
# The other results are listed elsewhere or left out.
# Experiments:
# Experiment in all cases: glycan array binding signal (z-score within array); higher = stronger binding
# Conditions in all cases: glycan notation: IUPAC condensed, linker removed
# [1] = molecular target: Fuc(a1-2)Gal6S(b1-3)GlcNAc6S
# Procedure, shortened: (§1)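 The Consortium for Functional Glycomics database supplied 3228 glycan arrays, of which those lacking an available protein sequence were dropped. The binding signal, a within-array Z-score, was averaged across arrays of the same protein sequence and across linkers. Negative scores can be read as non-binding.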
# Fuc(a1-2)Gal6S(b1-4)Glc = molecular target: Fuc(a1-2)Gal6S(b1-4)Glc
# Procedure, shortened: as §1
# [2] = molecular target: Fuc(a1-2)Gal6S(b1-4)Glc6S
# Procedure, shortened: as §1
# Fuc(a1-2)[Gal(a1-3)]Gal = molecular target: Fuc(a1-2)[Gal(a1-3)]Gal
# Procedure, shortened: as §1
# [3] = molecular target: Fuc(a1-2)[Gal(a1-3)]Gal(b1-3)GalNAc
# Procedure, shortened: as §1
# [4] = molecular target: Fuc(a1-2)[Gal(a1-3)]Gal(b1-3)GalNAc(b1-3)Gal(a1-4)Gal(b1-4)Glc
# Procedure, shortened: as §1
# [5] = molecular target: Fuc(a1-2)[Gal(a1-3)]Gal(b1-3)GlcNAc
# Procedure, shortened: as §1
# [6] = molecular target: Fuc(a1-2)[Gal(a1-3)]Gal(b1-3)GlcNAc(b1-2)Man(a1-3)[Fuc(a1-2)[Gal(a1-3)]Gal(b1-3)GlcNAc(b1-2)Man(a1-6)]Man(b1-4)GlcNAc(b1-4)GlcNAc
# Procedure, shortened: as §1
# [7] = molecular target: Fuc(a1-2)[Gal(a1-3)]Gal(b1-3)GlcNAc(b1-2)Man(a1-3)[Fuc(a1-2)[Gal(a1-3)]Gal(b1-3)GlcNAc(b1-2)Man(a1-6)]Man(b1-4)GlcNAc(b1-4)[Fuc(a1-6)]GlcNAc
# Procedure, shortened: as §1
# [8] = molecular target: Fuc(a1-2)[Gal(a1-3)]Gal(b1-3)GlcNAc(b1-3)GalNAc
# Procedure, shortened: as §1
# [9] = molecular target: Fuc(a1-2)[Gal(a1-3)]Gal(b1-3)GlcNAc(b1-6)GalNAc
# Procedure, shortened: as §1
# [10] = molecular target: Fuc(a1-2)[Gal(a1-3)]Gal(b1-4)Glc
# Procedure, shortened: as §1
# [11] = molecular target: Fuc(a1-2)[Gal(a1-3)]Gal(b1-4)GlcNAc
# Procedure, shortened: as §1
# [12] = molecular target: Fuc(a1-2)[Gal(a1-3)]Gal(b1-4)GlcNAc(b1-2)Man
# Procedure, shortened: as §1
# [13] = molecular target: Fuc(a1-2)[Gal(a1-3)]Gal(b1-4)GlcNAc(b1-2)Man(a1-3)[Fuc(a1-2)[Gal(a1-3)]Gal(b1-4)GlcNAc(b1-2)Man(a1-6)]Man(b1-4)GlcNAc(b1-4)GlcNAc
# Procedure, shortened: as §1
# [14] = molecular target: Fuc(a1-2)[Gal(a1-3)]Gal(b1-4)GlcNAc(b1-2)Man(a1-3)[Fuc(a1-2)[Gal(a1-3)]Gal(b1-4)GlcNAc(b1-2)Man(a1-6)]Man(b1-4)GlcNAc(b1-4)[Fuc(a1-6)]GlcNAc
# Procedure, shortened: as §1
# [15] = molecular target: Fuc(a1-2)[Gal(a1-3)]Gal(b1-4)GlcNAc(b1-3)GalNAc
# Procedure, shortened: as §1
# [16] = molecular target: Fuc(a1-2)[Gal(a1-3)]Gal(b1-4)GlcNAc(b1-3)[Fuc(a1-2)[Gal(a1-3)]Gal(b1-4)GlcNAc(b1-6)]GalNAc
# Procedure, shortened: as §1
# [17] = molecular target: Fuc(a1-2)[Gal(a1-3)]Gal(b1-4)GlcNAc(b1-6)GalNAc
# Procedure, shortened: as §1
# [18] = molecular target: Fuc(a1-2)[Gal(a1-3)]Gal(b1-4)[Fuc(a1-3)]Glc
# Procedure, shortened: as §1
# [19] = molecular target: Fuc(a1-2)[Gal(a1-3)]Gal(b1-4)[Fuc(a1-3)]GlcNAc
# Procedure, shortened: as §1
# [20] = molecular target: Fuc(a1-2)[Gal(a1-3)]Gal(b1-4)[Fuc(a1-3)]GlcNAc(b1-3)GalNAc
# Procedure, shortened: as §1
# [21] = molecular target: Fuc(a1-2)[Gal(a1-4)]Gal(b1-4)GlcNAc
# Procedure, shortened: as §1
# [22] = molecular target: Fuc(a1-2)[GalNAc(a1-3)]Gal
# Procedure, shortened: as §1
# [23] = molecular target: Fuc(a1-2)[GalNAc(a1-3)]Gal(b1-3)GalNAc(a1-3)[Fuc(a1-2)]Gal(b1-4)GlcNAc
# Procedure, shortened: as §1
# [24] = molecular target: Fuc(a1-2)[GalNAc(a1-3)]Gal(b1-3)GalNAc(b1-3)Gal(a1-4)Gal(b1-4)Glc
# Procedure, shortened: as §1
# [25] = molecular target: Fuc(a1-2)[GalNAc(a1-3)]Gal(b1-3)GlcNAc
# Procedure, shortened: as §1
# [26] = molecular target: Fuc(a1-2)[GalNAc(a1-3)]Gal(b1-3)GlcNAc(b1-2)Man(a1-3)[Fuc(a1-2)[GalNAc(a1-3)]Gal(b1-3)GlcNAc(b1-2)Man(a1-6)]Man(b1-4)GlcNAc(b1-4)GlcNAc
# Procedure, shortened: as §1
# [27] = molecular target: Fuc(a1-2)[GalNAc(a1-3)]Gal(b1-3)GlcNAc(b1-2)Man(a1-3)[Fuc(a1-2)[GalNAc(a1-3)]Gal(b1-3)GlcNAc(b1-2)Man(a1-6)]Man(b1-4)GlcNAc(b1-4)[Fuc(a1-6)]GlcNAc
# Procedure, shortened: as §1
# [28] = molecular target: Fuc(a1-2)[GalNAc(a1-3)]Gal(b1-3)GlcNAc(b1-3)GalNAc
# Procedure, shortened: as §1
# [29] = molecular target: Fuc(a1-2)[GalNAc(a1-3)]Gal(b1-3)GlcNAc(b1-6)GalNAc
# Procedure, shortened: as §1
# [30] = molecular target: Fuc(a1-2)[GalNAc(a1-3)]Gal(b1-4)Glc
# Procedure, shortened: as §1
# [31] = molecular target: Fuc(a1-2)[GalNAc(a1-3)]Gal(b1-4)GlcNAc
# Procedure, shortened: as §1
# [32] = molecular target: Fuc(a1-2)[GalNAc(a1-3)]Gal(b1-4)GlcNAc(b1-2)Man
# Procedure, shortened: as §1
# [33] = molecular target: Fuc(a1-2)[GalNAc(a1-3)]Gal(b1-4)GlcNAc(b1-2)Man(a1-3)[Fuc(a1-2)[GalNAc(a1-3)]Gal(b1-4)GlcNAc(b1-2)Man(a1-6)]Man(b1-4)GlcNAc(b1-4)GlcNAc
# Procedure, shortened: as §1
# [34] = molecular target: Fuc(a1-2)[GalNAc(a1-3)]Gal(b1-4)GlcNAc(b1-2)Man(a1-3)[Fuc(a1-2)[GalNAc(a1-3)]Gal(b1-4)GlcNAc(b1-2)Man(a1-6)]Man(b1-4)GlcNAc(b1-4)[Fuc(a1-6)]GlcNAc
# Procedure, shortened: as §1
# [35] = molecular target: Fuc(a1-2)[GalNAc(a1-3)]Gal(b1-4)GlcNAc(b1-3)Gal(b1-4)GlcNAc
# Procedure, shortened: as §1
# [36] = molecular target: Fuc(a1-2)[GalNAc(a1-3)]Gal(b1-4)GlcNAc(b1-3)Gal(b1-4)GlcNAc(b1-3)Gal(b1-4)GlcNAc
# Procedure, shortened: as §1
# [37] = molecular target: Fuc(a1-2)[GalNAc(a1-3)]Gal(b1-4)GlcNAc(b1-3)GalNAc
# Procedure, shortened: as §1
# [38] = molecular target: Fuc(a1-2)[GalNAc(a1-3)]Gal(b1-4)GlcNAc(b1-3)[Fuc(a1-2)[GalNAc(a1-3)]Gal(b1-4)GlcNAc(b1-6)]GalNAc
# Procedure, shortened: as §1
# [39] = molecular target: Fuc(a1-2)[GalNAc(a1-3)]Gal(b1-4)GlcNAc(b1-6)GalNAc
# Procedure, shortened: as §1
# [40] = molecular target: Fuc(a1-2)[GalNAc(a1-3)]Gal(b1-4)[Fuc(a1-3)]GlcNAc
# Procedure, shortened: as §1
# [41] = molecular target: Fuc(a1-2)[GalNAc(a1-3)]Gal(b1-4)[Fuc(a1-3)]GlcNAc(b1-3)GalNAc
# Procedure, shortened: as §1
# [42] = molecular target: Fuc(a1-2)[GalNAc(a1-4)]Gal(b1-4)GlcNAc
# Procedure, shortened: as §1
# [43] = molecular target: Fuc(a1-2)[GalNAc(b1-3)]Gal
# Procedure, shortened: as §1
binder,measurement,setting,value
Aap arpt (Staphylococcus epidermidis) (protein) NNEAPQMSSTLQAEEGSNAEAPQSEPTKAEEGGNAEAAQSEPTKAEEGGNAEAPQSEPTKAEEGGNAEAAQSEPTKTEEGSNVKAAQSEPTKAEEGSNAEAPQSEPTKTEEGSNAKAAQSEPTKAEEGGNAEAAQSEPTKTEEGSNAEAPQSEPTKAEEGGYAEAPQSEPTKTEEGGNAEAPNVPTIKA,glycan array binding signal (z-score),[1],0.327
same,glycan array binding signal (z-score),Fuc(a1-2)Gal6S(b1-4)Glc,0.462
same,glycan array binding signal (z-score),[2],0.373
same,glycan array binding signal (z-score),Fuc(a1-2)[Gal(a1-3)]Gal,-0.638
same,glycan array binding signal (z-score),[3],-0.434
same,glycan array binding signal (z-score),[4],-0.802
same,glycan array binding signal (z-score),[5],-0.351
same,glycan array binding signal (z-score),[6],-0.069
same,glycan array binding signal (z-score),[7],-0.12
same,glycan array binding signal (z-score),[8],0.244
same,glycan array binding signal (z-score),[9],-0.422
same,glycan array binding signal (z-score),[10],-0.416
same,glycan array binding signal (z-score),[11],0.036
same,glycan array binding signal (z-score),[12],0.725
same,glycan array binding signal (z-score),[13],0.857
same,glycan array binding signal (z-score),[14],0.149
same,glycan array binding signal (z-score),[15],0.911
same,glycan array binding signal (z-score),[16],1.58
same,glycan array binding signal (z-score),[17],-0.475
same,glycan array binding signal (z-score),[18],-0.463
same,glycan array binding signal (z-score),[19],-0.571
same,glycan array binding signal (z-score),[20],0.442
same,glycan array binding signal (z-score),[21],-0.791
same,glycan array binding signal (z-score),[22],-0.531
same,glycan array binding signal (z-score),[23],-0.523
same,glycan array binding signal (z-score),[24],-0.952
same,glycan array binding signal (z-score),[25],-1.15
same,glycan array binding signal (z-score),[26],-0.928
same,glycan array binding signal (z-score),[27],-0.31
same,glycan array binding signal (z-score),[28],-0.103
same,glycan array binding signal (z-score),[29],-0.564
same,glycan array binding signal (z-score),[30],0.147
same,glycan array binding signal (z-score),[31],-2.25
same,glycan array binding signal (z-score),[32],1.48
same,glycan array binding signal (z-score),[33],0.528
same,glycan array binding signal (z-score),[34],-0.621
same,glycan array binding signal (z-score),[35],-0.914
same,glycan array binding signal (z-score),[36],-0.239
same,glycan array binding signal (z-score),[37],-0.617
same,glycan array binding signal (z-score),[38],-0.684
same,glycan array binding signal (z-score),[39],0.358
same,glycan array binding signal (z-score),[40],0.454
same,glycan array binding signal (z-score),[41],1.69
same,glycan array binding signal (z-score),[42],-0.286
same,glycan array binding signal (z-score),[43],-0.168

# 3 entries from above, as tab-separated lines:
binder	measurement	setting	value
Aap arpt (Staphylococcus epidermidis) (protein) NNEAPQMSSTLQAEEGSNAEAPQSEPTKAEEGGNAEAAQSEPTKAEEGGNAEAPQSEPTKAEEGGNAEAAQSEPTKTEEGSNVKAAQSEPTKAEEGSNAEAPQSEPTKTEEGSNAKAAQSEPTKAEEGGNAEAAQSEPTKTEEGSNAEAPQSEPTKAEEGGYAEAPQSEPTKTEEGGNAEAPNVPTIKA	glycan array binding signal (z-score)	[4]	-0.802
same	glycan array binding signal (z-score)	[5]	-0.351
same	glycan array binding signal (z-score)	[6]	-0.069
